The target of assay [1] is T1, GST::proCED-3(C358S) (C. elegans) (UniProt P42573).
T1 sequence: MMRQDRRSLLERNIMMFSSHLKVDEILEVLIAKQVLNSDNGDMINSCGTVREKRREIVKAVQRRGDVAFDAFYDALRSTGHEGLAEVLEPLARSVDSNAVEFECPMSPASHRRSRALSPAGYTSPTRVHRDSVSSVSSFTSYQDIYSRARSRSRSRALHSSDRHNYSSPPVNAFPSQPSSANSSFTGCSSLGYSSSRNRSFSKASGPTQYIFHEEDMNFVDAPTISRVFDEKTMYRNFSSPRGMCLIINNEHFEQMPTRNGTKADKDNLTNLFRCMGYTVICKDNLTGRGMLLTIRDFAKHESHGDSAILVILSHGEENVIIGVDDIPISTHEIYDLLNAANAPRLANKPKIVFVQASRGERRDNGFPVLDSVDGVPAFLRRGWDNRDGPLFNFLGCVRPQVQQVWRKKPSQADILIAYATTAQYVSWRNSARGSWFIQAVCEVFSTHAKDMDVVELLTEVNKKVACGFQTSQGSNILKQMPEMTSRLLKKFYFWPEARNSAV
Kind of assay: pull-down; GST-tagged proteins held on Glutathione-Sepharose beads, incubated with 10 μl in vitro transcribed-translated ^35S-labeled protein for 90 minutes at 4°C in 30 mM Tris-HCl (pH 7.5), 0.5% Triton X-100, 100 mM NaCl, 2 mM MgCl2, 1 mM DTT, 0.5% BSA; autoradiography; only the target purified.

The target of assay [2] is T2, GST::proCED-3 (C. elegans) (UniProt P42573).
T2 sequence: T1 sequence with S358C
The assay is described as above.

Positions count from the first letter of the chain named. Results are given in words; binding and its absence hold for the method and conditions named. Binding seen in cells or lysates may run through a third protein. Some results given as binding are weak or reduced against the parent protein; the word gives no strength. Where a sequence is shown, tags or fusion partners need not be part of it.

B1: ^35S-S·TAG::ECT-2 (full-length ECT-2 protein) (protein, UniProt Q9U364 1-932)
chain: MDVSMLQSPQKRIKTIQKLAVSKKDVHDFKDIFEMLEEQKEKRNINIIQYDSLDDLSGDWSEYTFFCGNFDSDLFRTLTKHQETQALFIIGASVLKNKLLKNEDLMTLRAARPLYCELMKDVTMKLAAEVPNKRELVDLVHYMGGSVRKDTVSRTNVFIAAKVEAKVQSISLVGVPTMRADWVTECWKHRDDSYFDVMEPCFVDKHRLGVFEGLSLFFHGFKQTEIDDMLRSLENTGGKLAPSPTLATHVVYNPDNDEVETLAVSSNQVHVTKEWFWVSLHRGCCAIEDNFALPTGKLHRKPLESSSVSSPIGKSLRSQNSRSLSSMRDCSVEGPTSLNMTPDYIYSNDDVENSCKSPRQPSKRLRVCMEMVETEKNYLSLLKLVVKFKEALECEISHNEFMSRSDVAMMFGKLDPILELHERIFARLTVMSNEANTLLTVVNGKKNDDKNLDFAQVWIDAKEEMKKAYPQYINSYDTIKRLFDKQDRENSKFHTFCKAKESNPEFHRLKLTDLMVKPVQRLPSVILLLKEMAKKSDSKLKNNAEEAAKAIDEVLKTANKTREKNDNFISHLSKFTDIENVPPILVAANRMFIRELVVSPIASTSPGLQQFAKMKLFLFHDVLIITKIRSEKNTMQRLARHASFASLHSRQRRPYRYIDQIQLNTMRSAFRIRAPDEIAKCLELQQQNGSTKPNVFVWCLIHRDEQGGDIDTVFESNDDEEVRDFLDDIHVKILSDCGRFFYSSDPSDMNEINDAMVSDMTTRYFRNLCGAKPQYGHGSQMNITVSERSTQNEWSHNESFMPPPQSQSRMRRAFSNAQLTLATTLGFGRNQSRNNLGQINENTTFLQSPRVSCDPAALANMTSVGGLPGCQSESESTPKRGIRSRLTSTTFLGGRHNILGRNTSMRRQATGFAHSEKELPRSKTSSYRVTDI
modifications: ^35S-methionine-labeled
Turning to B1, the binding result in assay [1] and in assay [2] was “binds” in each case.

Source of the values: article PMC9536578.
